In the supplement of paper PMC4604168 (melanoma cell lines):
The list shows a part of the results. Single values are uncertain, as repeats are few or missing.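 Cells were imaged in 1,536-well plates, and nuclei stained with an antibody against cleaved PARP were counted against all DNA-stained nuclei to give the apoptosis fraction. Screening doses were chosen to leave most cells alive, and resting and induced cleaved-PARP levels differ strongly between cell lines.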

What follows are compounds tested on WM3619 (assay: cleaved PARP positive nuclei fraction relative to DMSO control; melanoma cells; higher = more apoptosis). Settings: library dose: low library concentration; 72 h.

Row | SMILES | cleaved PARP positive nuclei fraction [%]
1 | O=c1[nH]nc(Sc2ncc([N+](=O)[O-])s2)n1-c1ccc2c(c1)OCCO2 + COc1ccc(COc2ccc(Cc3cnc(N)nc3N)cc2OC)cc1 [GW2580] (first compound 0.2 µM, partner dose 1 µM) | 98.1
2 | COc1cc([C@@H]2c3cc4c(cc3[C@@H](O[C@@H]3O[C@@H]5CO[C@@H](C)O[C@H]5[C@H](O)[C@H]3O)[C@H]3COC(=O)[C@H]23)OCO4)cc(OC)c1O [etoposide] + O=S(=O)(c1ccccc1)N(CC(F)(F)F)c1ccc(C(O)(C(F)(F)F)C(F)(F)F)cc1 [T0901317] (first compound 0.02 µM, partner dose 1.4 µM) | 81.1
3 | O=c1[nH]nc(Sc2ncc([N+](=O)[O-])s2)n1-c1ccc2c(c1)OCCO2 + O=S(=O)(c1ccccc1)N(CC(F)(F)F)c1ccc(C(O)(C(F)(F)F)C(F)(F)F)cc1 [T0901317] (first compound 0.2 µM, partner dose 1.4 µM) | 184
4 | Cc1cc(Nc2cc(N3CCN(C)CC3)nc(Sc3ccc(NC(=O)C4CC4)cc3)n2)n[nH]1 [Tozasertib] + Cn1cncc1[C@@](N)(c1ccc(Cl)cc1)c1ccc2c(c1)c(-c1cccc(Cl)c1)cc(=O)n2C [tipifarnib] (first compound 0.006 µM, partner dose 0.01 µM) | 96.9
5 | CC[C@]1(O)C[C@H]2CN(CCc3c([nH]c4ccccc34)[C@@](C(=O)OC)(c3cc4c(cc3OC)N(C=O)[C@H]3[C@@](O)(C(=O)OC)[C@H](OC(C)=O)[C@]5(CC)C=CCN6CC[C@]43[C@@H]65)C2)C1 [vincristine] + c1cc(-c2cnn3cc(-c4ccc(OCCN5CCCCC5)cc4)cnc23)ccn1 [Dorsomorphin] (first compound 0.0001 µM, partner dose 0.4 µM) | 190
6 | Cc1ccc(Nc2nccc(N(C)c3ccc4c(C)n(C)nc4c3)n2)cc1S(N)(=O)=O [Pazopanib] + CN(NC(=O)CC(=O)NN(C)C(=S)c1ccccc1)C(=S)c1ccccc1 [STA4783] (first compound 0.4 µM, partner dose 0.006 µM) | 144
7 | Cc1cn(-c2cc(NC(=O)c3ccc(C)c(Nc4nccc(-c5cccnc5)n4)c3)cc(C(F)(F)F)c2)cn1 [nilotinib] + COc1ccc(COc2ccc(Cc3cnc(N)nc3N)cc2OC)cc1 [GW2580] (first compound 0.2 µM, partner dose 1 µM) | 84.4
8 | COc1cc([C@@H]2c3cc4c(cc3[C@@H](O[C@@H]3O[C@@H]5CO[C@@H](C)O[C@H]5[C@H](O)[C@H]3O)[C@H]3COC(=O)[C@H]23)OCO4)cc(OC)c1O [etoposide] + C[C@@H]1CCN(C(=O)CC#N)C[C@@H]1N(C)c1ncnc2[nH]ccc12 [CP690550] (first compound 0.02 µM, partner dose 1 µM) | 117
9 | Cc1cn(-c2cc(NC(=O)c3ccc(C)c(Nc4nccc(-c5cccnc5)n4)c3)cc(C(F)(F)F)c2)cn1 [nilotinib] + Cn1cc(/C=C2\C(=O)Nc3cccnc32)c2ccccc21 [GW441756] (first compound 0.2 µM, partner dose 0.4 µM) | 105
10 | Cc1cn(-c2cc(NC(=O)c3ccc(C)c(Nc4nccc(-c5cccnc5)n4)c3)cc(C(F)(F)F)c2)cn1 [nilotinib] + O=c1cc(-c2cccc3c2Sc2ccccc2S3)oc(N2CCOCC2)c1 [KU55933] (first compound 0.2 µM, partner dose 1 µM) | 82.3
11 | CC[C@]1(O)C[C@H]2CN(CCc3c([nH]c4ccccc34)[C@@](C(=O)OC)(c3cc4c(cc3OC)N(C=O)[C@H]3[C@@](O)(C(=O)OC)[C@H](OC(C)=O)[C@]5(CC)C=CCN6CC[C@]43[C@@H]65)C2)C1 [vincristine] + NC(=O)Nc1cc(-c2cccc(F)c2)sc1C(=O)N[C@H]1CCCNC1 [AZD7762] (first compound 0.0001 µM, partner dose 0.02 µM) | 212
12 | CCCCCCCCCCCCCCCCCCOP(=O)([O-])OC1CC[N+](C)(C)CC1 [Perifosine] + COc1ccc2c(c1)CCC1C2CCC2(C)C(NCCCCCCN3C(=O)C=CC3=O)CCC12 [U73122] (first compound 0.4 µM, partner dose 0.4 µM) | 84.3
13 | Cc1cn(-c2cc(NC(=O)c3ccc(C)c(Nc4nccc(-c5cccnc5)n4)c3)cc(C(F)(F)F)c2)cn1 [nilotinib] + Cc1ccc(NC(=O)c2cccc(N(C)C)c2)cc1NC(=O)c1ccc(O)cc1 [ZM336372] (first compound 0.2 µM, partner dose 2 µM) | 124
14 | CC[C@]1(O)C[C@H]2CN(CCc3c([nH]c4ccccc34)[C@@](C(=O)OC)(c3cc4c(cc3OC)N(C=O)[C@H]3[C@@](O)(C(=O)OC)[C@H](OC(C)=O)[C@]5(CC)C=CCN6CC[C@]43[C@@H]65)C2)C1 [vincristine] + O=C(Nc1cccc(Cl)c1)Nc1ncc(CCNc2ncnc3ccsc23)s1 [SNS314] (first compound 0.0001 µM, partner dose 0.0008 µM) | 156
15 | Cc1ccc(Nc2nccc(N(C)c3ccc4c(C)n(C)nc4c3)n2)cc1S(N)(=O)=O [Pazopanib] + O=C(Nc1cccc(Cl)c1)Nc1ncc(CCNc2ncnc3ccsc23)s1 [SNS314] (first compound 0.4 µM, partner dose 0.0008 µM) | 109
16 | CC[C@]1(O)C[C@H]2CN(CCc3c([nH]c4ccccc34)[C@@](C(=O)OC)(c3cc4c(cc3OC)N(C=O)[C@H]3[C@@](O)(C(=O)OC)[C@H](OC(C)=O)[C@]5(CC)C=CCN6CC[C@]43[C@@H]65)C2)C1 [vincristine] + COc1ccc(-c2ccc3c(N4CCOCC4)nc(N4C[C@@H](C)O[C@@H](C)C4)nc3n2)cc1CO [KU0063794] (first compound 0.0001 µM, partner dose 0.02 µM) | 123
17 | O=c1[nH]nc(Sc2ncc([N+](=O)[O-])s2)n1-c1ccc2c(c1)OCCO2 + COc1cc(Nc2ncc(F)c(Nc3ccc4c(n3)NC(=O)C(C)(C)O4)n2)cc(OC)c1OC [Tamatinib] (first compound 0.2 µM, partner dose 0.4 µM) | 93.4
18 | O=C(/C=C/c1cccnc1)NCCCCC1CCN(C(=O)c2ccccc2)CC1 + Cc1cc(N2CCOCC2)cc2[nH]c(-c3c(NC[C@@H](O)c4cccc(Cl)c4)cc[nH]c3=O)nc12 [BMS536924] (first compound 0.01 µM, partner dose 0.2 µM) | 125
19 | Cc1cc(Nc2cc(N3CCN(C)CC3)nc(Sc3ccc(NC(=O)C4CC4)cc3)n2)n[nH]1 [Tozasertib] + CC1(C)NC(=O)N(c2ccc([N+](=O)[O-])c(C(F)(F)F)c2)C1=O [nilutamide] (first compound 0.006 µM, partner dose 1 µM) | 110
20 | O=C(/C=C/c1cccnc1)NCCCCC1CCN(C(=O)c2ccccc2)CC1 + O=S(=O)(c1ccccc1)N(CC(F)(F)F)c1ccc(C(O)(C(F)(F)F)C(F)(F)F)cc1 [T0901317] (first compound 0.01 µM, partner dose 1.4 µM) | 129
21 | CC[C@]1(O)C[C@H]2CN(CCc3c([nH]c4ccccc34)[C@@](C(=O)OC)(c3cc4c(cc3OC)N(C=O)[C@H]3[C@@](O)(C(=O)OC)[C@H](OC(C)=O)[C@]5(CC)C=CCN6CC[C@]43[C@@H]65)C2)C1 [vincristine] + Cc1cc(N2CCOCC2)cc2[nH]c(-c3c(NC[C@@H](O)c4cccc(Cl)c4)cc[nH]c3=O)nc12 [BMS536924] (first compound 0.0001 µM, partner dose 0.2 µM) | 178
22 | O=c1[nH]nc(Sc2ncc([N+](=O)[O-])s2)n1-c1ccc2c(c1)OCCO2 + O=c1cc(-c2cccc3c2Sc2ccccc2S3)oc(N2CCOCC2)c1 [KU55933] (first compound 0.2 µM, partner dose 1 µM) | 106
23 | COc1cc([C@@H]2c3cc4c(cc3[C@@H](O[C@@H]3O[C@@H]5CO[C@@H](C)O[C@H]5[C@H](O)[C@H]3O)[C@H]3COC(=O)[C@H]23)OCO4)cc(OC)c1O [etoposide] + O=C1NC(=O)/C(=C/c2ccc(-c3ccc(F)cc3O)o2)S1 [AS252424] (first compound 0.02 µM, partner dose 1 µM) | 87
24 | Cc1cn(-c2cc(NC(=O)c3ccc(C)c(Nc4nccc(-c5cccnc5)n4)c3)cc(C(F)(F)F)c2)cn1 [nilotinib] + CCCCCCCCCCCC1=C(O)C(=O)C=C(O)C1=O [Embelin] (first compound 0.2 µM, partner dose 1.2 µM) | 86.4
25 | O=c1[nH]nc(Sc2ncc([N+](=O)[O-])s2)n1-c1ccc2c(c1)OCCO2 + CCCCCCCCCCCC1=C(O)C(=O)C=C(O)C1=O [Embelin] (first compound 0.2 µM, partner dose 1.2 µM) | 107
26 | O=c1[nH]nc(Sc2ncc([N+](=O)[O-])s2)n1-c1ccc2c(c1)OCCO2 + O=C(Nc1cccc(Cl)c1)Nc1ncc(CCNc2ncnc3ccsc23)s1 [SNS314] (first compound 0.2 µM, partner dose 0.0008 µM) | 99.3
27 | CCCCCCCCCCCCCCCCCCOP(=O)([O-])OC1CC[N+](C)(C)CC1 [Perifosine] + NC(=O)Nc1cc(-c2cccc(F)c2)sc1C(=O)N[C@H]1CCCNC1 [AZD7762] (first compound 0.4 µM, partner dose 0.02 µM) | 163

Part of the list above, as comma-separated lines:
Row,SMILES,cleaved PARP positive nuclei fraction [%]
14,"CC[C@]1(O)C[C@H]2CN(CCc3c([nH]c4ccccc34)[C@@](C(=O)OC)(c3cc4c(cc3OC)N(C=O)[C@H]3[C@@](O)(C(=O)OC)[C@H](OC(C)=O)[C@]5(CC)C=CCN6CC[C@]43[C@@H]65)C2)C1 [vincristine] + O=C(Nc1cccc(Cl)c1)Nc1ncc(CCNc2ncnc3ccsc23)s1 [SNS314] (first compound 0.0001 µM, partner dose 0.0008 µM)",156
26,"O=c1[nH]nc(Sc2ncc([N+](=O)[O-])s2)n1-c1ccc2c(c1)OCCO2 + O=C(Nc1cccc(Cl)c1)Nc1ncc(CCNc2ncnc3ccsc23)s1 [SNS314] (first compound 0.2 µM, partner dose 0.0008 µM)",99.3
